Where two headings read alike, the source gives them in different places. Results are given in words; binding and its absence hold for the method and conditions named. In cells and extracts the contact can be indirect. Some results given as binding are weak or reduced against the parent protein; the word gives no strength.
Columns and labels:
eGFP:Nup153 = eGFP:Nup153 (UniProt P49790); experiment: co-IP
[1] = target: Nup153 (human (endogenous in Jurkat and HEK293T)) (UniProt P49790); experiment: proximity ligation
[2] = target: Nup153 (human (endogenous in Jurkat and HEK293T)) (UniProt P49790); experiment: proximity ligation; remark: listed apart in the source
[3] = target: Nup98 (human (endogenous in Jurkat)) (UniProt P52948); experiment: proximity ligation

By UniProt entry, the sequences of proteins in these tests, tags left out. Residues count along the entry.
UniProt P49790: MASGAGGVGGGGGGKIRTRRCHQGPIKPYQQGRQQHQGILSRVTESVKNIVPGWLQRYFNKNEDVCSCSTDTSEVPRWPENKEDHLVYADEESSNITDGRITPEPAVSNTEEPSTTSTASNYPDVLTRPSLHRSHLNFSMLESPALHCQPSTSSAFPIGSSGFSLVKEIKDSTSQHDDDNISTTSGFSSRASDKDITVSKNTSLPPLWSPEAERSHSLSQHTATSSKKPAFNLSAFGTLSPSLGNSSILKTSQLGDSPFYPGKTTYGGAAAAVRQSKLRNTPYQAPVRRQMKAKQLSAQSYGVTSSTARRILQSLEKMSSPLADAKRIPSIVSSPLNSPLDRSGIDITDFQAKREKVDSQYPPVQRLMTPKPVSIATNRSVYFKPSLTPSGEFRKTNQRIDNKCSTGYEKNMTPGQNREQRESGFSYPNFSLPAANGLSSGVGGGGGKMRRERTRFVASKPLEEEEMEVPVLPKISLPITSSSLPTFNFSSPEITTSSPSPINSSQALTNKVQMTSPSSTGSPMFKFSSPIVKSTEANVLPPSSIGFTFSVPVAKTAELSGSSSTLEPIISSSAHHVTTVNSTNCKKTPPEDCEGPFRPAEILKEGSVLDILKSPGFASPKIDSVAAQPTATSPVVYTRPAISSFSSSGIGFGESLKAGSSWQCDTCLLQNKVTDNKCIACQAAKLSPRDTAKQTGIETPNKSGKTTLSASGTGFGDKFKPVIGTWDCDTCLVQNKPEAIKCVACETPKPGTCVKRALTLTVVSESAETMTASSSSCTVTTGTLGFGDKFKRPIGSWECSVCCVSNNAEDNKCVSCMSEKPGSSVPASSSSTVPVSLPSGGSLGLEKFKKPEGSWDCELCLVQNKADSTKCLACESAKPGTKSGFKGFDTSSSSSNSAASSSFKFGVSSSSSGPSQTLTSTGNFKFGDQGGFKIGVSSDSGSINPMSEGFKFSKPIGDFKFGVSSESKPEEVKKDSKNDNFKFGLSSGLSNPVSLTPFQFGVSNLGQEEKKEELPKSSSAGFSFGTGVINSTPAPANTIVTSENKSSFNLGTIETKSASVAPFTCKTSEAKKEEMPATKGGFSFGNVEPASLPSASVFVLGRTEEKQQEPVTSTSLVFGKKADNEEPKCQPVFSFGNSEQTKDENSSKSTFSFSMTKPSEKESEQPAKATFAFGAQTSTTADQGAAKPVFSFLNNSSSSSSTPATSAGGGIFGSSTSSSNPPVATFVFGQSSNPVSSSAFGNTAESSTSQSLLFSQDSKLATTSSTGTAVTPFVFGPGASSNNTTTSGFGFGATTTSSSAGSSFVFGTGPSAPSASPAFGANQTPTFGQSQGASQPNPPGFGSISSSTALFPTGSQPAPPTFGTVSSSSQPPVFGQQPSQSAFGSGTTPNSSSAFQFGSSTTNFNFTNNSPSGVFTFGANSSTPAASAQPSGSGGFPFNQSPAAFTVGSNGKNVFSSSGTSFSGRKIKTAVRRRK
UniProt P52948, residues 1-880: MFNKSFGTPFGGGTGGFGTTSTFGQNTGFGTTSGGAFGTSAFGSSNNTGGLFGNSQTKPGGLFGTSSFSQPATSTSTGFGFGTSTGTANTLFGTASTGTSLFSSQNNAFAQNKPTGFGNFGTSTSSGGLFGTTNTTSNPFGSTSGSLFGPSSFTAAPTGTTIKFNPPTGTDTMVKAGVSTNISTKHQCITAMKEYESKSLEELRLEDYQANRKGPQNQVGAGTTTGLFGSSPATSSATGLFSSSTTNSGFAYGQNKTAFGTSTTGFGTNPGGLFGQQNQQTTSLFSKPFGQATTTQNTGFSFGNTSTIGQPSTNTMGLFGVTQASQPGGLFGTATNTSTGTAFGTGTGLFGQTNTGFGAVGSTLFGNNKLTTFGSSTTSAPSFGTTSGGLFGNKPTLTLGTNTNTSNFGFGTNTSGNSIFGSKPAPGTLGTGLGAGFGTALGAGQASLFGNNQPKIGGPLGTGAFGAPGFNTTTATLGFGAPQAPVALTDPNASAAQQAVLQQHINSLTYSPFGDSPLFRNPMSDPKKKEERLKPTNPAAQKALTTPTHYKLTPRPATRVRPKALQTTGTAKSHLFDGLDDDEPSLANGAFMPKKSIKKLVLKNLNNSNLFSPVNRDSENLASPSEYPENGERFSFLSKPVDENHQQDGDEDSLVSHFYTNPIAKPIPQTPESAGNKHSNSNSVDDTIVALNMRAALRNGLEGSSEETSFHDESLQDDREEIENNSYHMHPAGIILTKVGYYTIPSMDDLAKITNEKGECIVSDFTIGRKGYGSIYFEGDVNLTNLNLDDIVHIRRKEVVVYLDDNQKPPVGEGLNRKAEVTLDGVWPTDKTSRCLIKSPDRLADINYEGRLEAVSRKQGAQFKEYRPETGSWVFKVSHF

Row | binding (eGFP:Nup153) | binding [1] | binding [2] | binding [3] | Binder
1 | binds |  |  |  | ISY1 (protein, UniProt Q9ULR0 1-285) MARNAEKAMTALARFRQAQLEEGKVKERRPFLASECTELPKAEKWRRQIIGEISKKVAQIQNAGLGEFRIRDLNDEINKLLREKGHWEVRIKELGGPDYGKVGPKMLDHEGKEVPGNRGYKYFGAAKDLPGVRELFEKEPLPPPRKTRAELMKAIDFEYYGYLDEDDGVIVPLEQEYEKKLRAELVEKWKAEREARLARGEKEEEEEEEEEINIYAVTEEESDEEGSQEKGGDDSQQKFIAHVPVPSQQEIEEALVRRKKMELLQKYASETLQAQSEEARRLLGY
2 | binds | binds | binds | binds | AQR (protein, UniProt O60306 1-1485) MAAPAQPKKIVAPTVSQINAEFVTQLACKYWAPHIKKKSPFDIKVIEDIYEKEIVKSRFAIRKIMLLEFSQYLENYLWMNYSPEVSSKAYLMSICCMVNEKFRENVPAWEIFKKKPDHFPFFFKHILKAALAETDGEFSLHEQTVLLLFLDHCFNSLEVDLIRSQVQQLISLPMWMGLQLARLELELKKTPKLRKFWNLIKKNDEKMDPEAREQAYQERRFLSQLIQKFISVLKSVPLSEPVTMDKVHYCERFIELMIDLEALLPTRRWFNTILDDSHLLVHCYLSNLVRREEDGHLFSQLLDMLKFYTGFEINDQTGNALTENEMTTIHYDRITSLQRAAFAHFPELYDFALSNVAEVDTRESLVKFFGPLSSNTLHQVASYLCLLPTLPKNEDTTFDKEFLLELLVSRHERRISQIQQLNQMPLYPTEKIIWDENIVPTEYYSGEGCLALPKLNLQFLTLHDYLLRNFNLFRLESTYEIRQDIEDSVSRMKPWQSEYGGVVFGGWARMAQPIVAFTVVEVAKPNIGENWPTRVRADVTINLNVRDHIKDEWEGLRKHDVCFLITVRPTKPYGTKFDRRRPFIEQVGLVYVRGCEIQGMLDDKGRVIEDGPEPRPNLRGESRTFRVFLDPNQYQQDMTNTIQNGAEDVYETFNIIMRRKPKENNFKAVLETIRNLMNTDCVVPDWLHDIILGYGDPSSAHYSKMPNQIATLDFNDTFLSIEHLKASFPGHNVKVTVEDPALQIPPFRITFPVRSGKGKKRKDADVEDEDTEEAKTLIVEPHVIPNRGPYPYNQPKRNTIQFTHTQIEAIRAGMQPGLTMVVGPPGTGKTDVAVQIISNIYHNFPEQRTLIVTHSNQALNQLFEKIMALDIDERHLLRLGHGEEELETEKDFSRYGRVNYVLARRIELLEEVKRLQKSLGVPGDASYTCETAGYFFLYQVMSRWEEYISKVKNKGSTLPDVTEVSTFFPFHEYFANAPQPIFKGRSYEEDMEIAEGCFRHIKKIFTQLEEFRASELLRSGLDRSKYLLVKEAKIIAMTCTHAALKRHDLVKLGFKYDNILMEEAAQILEIETFIPLLLQNPQDGFSRLKRWIMIGDHHQLPPVIKNMAFQKYSNMEQSLFTRFVRVGVPTVDLDAQGRARASLCNLYNWRYKNLGNLPHVQLLPEFSTANAGLLYDFQLINVEDFQGVGESEPNPYFYQNLGEAEYVVALFMYMCLLGYPADKISILTTYNGQKHLIRDIINRRCGNNPLIGRPNKVTTVDRFQGQQNDYILLSLVRTRAVGHLRDVRRLVVAMSRARLGLYIFARVSLFQNCFELTPAFSQLTARPLHLHIIPTEPFPTTRKNGERPSHEVQIIKNMPQMANFVYNMYMHLIQTTHHYHQTLLQLPPAMVEEGEEVQNQETELETEEEAMTVQADIIPSPTDTSCRQETPAFQTDTTPSETGATSTPEAIPALSETTPTVVGAVSAPAEANTPQDATSAPEETK
3 | binds | binds |  |  | XAB2 (protein, UniProt Q9HCS7 1-855) MVVMARLSRPERPDLVFEEEDLPYEEEIMRNQFSVKCWLRYIEFKQGAPKPRLNQLYERALKLLPCSYKLWYRYLKARRAQVKHRCVTDPAYEDVNNCHERAFVFMHKMPRLWLDYCQFLMDQGRVTHTRRTFDRALRALPITQHSRIWPLYLRFLRSHPLPETAVRGYRRFLKLSPESAEEYIEYLKSSDRLDEAAQRLATVVNDERFVSKAGKSNYQLWHELCDLISQNPDKVQSLNVDAIIRGGLTRFTDQLGKLWCSLADYYIRSGHFEKARDVYEEAIRTVMTVRDFTQVFDSYAQFEESMIAAKMETASELGREEEDDVDLELRLARFEQLISRRPLLLNSVLLRQNPHHVHEWHKRVALHQGRPREIINTYTEAVQTVDPFKATGKPHTLWVAFAKFYEDNGQLDDARVILEKATKVNFKQVDDLASVWCQCGELELRHENYDEALRLLRKATALPARRAEYFDGSEPVQNRVYKSLKVWSMLADLEESLGTFQSTKAVYDRILDLRIATPQIVINYAMFLEEHKYFEESFKAYERGISLFKWPNVSDIWSTYLTKFIARYGGRKLERARDLFEQALDGCPPKYAKTLYLLYAQLEEEWGLARHAMAVYERATRAVEPAQQYDMFNIYIKRAAEIYGVTHTRGIYQKAIEVLSDEHAREMCLRFADMECKLGEIDRARAIYSFCSQICDPRTTGAFWQTWKDFEVRHGNEDTIKEMLRIRRSVQATYNTQVNFMASQMLKVSGSATGTVSDLAPGQSGMDDMKLLEQRAEQLAAEAERDQPLRAQSKILFVRSDASREELAELAQQVNPEEIQLGEDEDEDEMDLEPNEVRLEQQSVPAAVFGSLKED
